This is one part of the list. Hit calls seldom repeat between salt and free forms of one compound.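 Kinases were expressed as nanoluciferase fusions in K562 cells and luminescence was read every 4 h between 2 and 18 h as percent of control, DMSO set to 100% and a positive control to 0%. A time point counts as decreased when the signal drops significantly (2 sigma). The hit call is the authors' own, does not follow from the count of time points alone, and its rule is not shown.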
Tests used:
Experiment in all cases: kinase-Nluc reporter destabilization hit call (1 = scored as downregulated) (binary); higher = compound decreases kinase abundance
Conditions in all cases: K562; 2-18 h
[1] = target: EGFR (UniProt P00533)
[2] = target: EGFR_G719S (UniProt P00533)
[3] = target: EGFR_G719S_T790M (UniProt P00533)
[4] = target: EGFR_L718V (UniProt P00533)
[5] = target: EGFR_L858R (UniProt P00533)
[6] = target: EGFR_L861Q (UniProt P00533)
[7] = target: EGFR_T790M (UniProt P00533)
[8] = target: EPHA2 (UniProt P29317)
[9] = target: ERBB3 (UniProt P21860)
[10] = target: ERBB4_R711C (clone: ERBB4_mut) (UniProt Q15303)
[11] = target: ERN1 (UniProt O75460)
[12] = target: FGFR1 (UniProt P11362)
[13] = target: FGFR2 (UniProt P21802)
[14] = target: FGFR3 (UniProt P22607)
[15] = target: FGR (UniProt P09769)
[16] = target: FLT3 (UniProt P36888)
[17] = target: FYN (UniProt P06241)
[18] = target: GSK3A (UniProt P49840)
[19] = target: HER2 (UniProt P04626)
[20] = target: INSRR (UniProt P14616)

Amino acid sequences for entries named in this document (tags omitted). A change or cut given only in a name is not applied to a line headed by its entry.
UniProt Q15303, whole entry R711C: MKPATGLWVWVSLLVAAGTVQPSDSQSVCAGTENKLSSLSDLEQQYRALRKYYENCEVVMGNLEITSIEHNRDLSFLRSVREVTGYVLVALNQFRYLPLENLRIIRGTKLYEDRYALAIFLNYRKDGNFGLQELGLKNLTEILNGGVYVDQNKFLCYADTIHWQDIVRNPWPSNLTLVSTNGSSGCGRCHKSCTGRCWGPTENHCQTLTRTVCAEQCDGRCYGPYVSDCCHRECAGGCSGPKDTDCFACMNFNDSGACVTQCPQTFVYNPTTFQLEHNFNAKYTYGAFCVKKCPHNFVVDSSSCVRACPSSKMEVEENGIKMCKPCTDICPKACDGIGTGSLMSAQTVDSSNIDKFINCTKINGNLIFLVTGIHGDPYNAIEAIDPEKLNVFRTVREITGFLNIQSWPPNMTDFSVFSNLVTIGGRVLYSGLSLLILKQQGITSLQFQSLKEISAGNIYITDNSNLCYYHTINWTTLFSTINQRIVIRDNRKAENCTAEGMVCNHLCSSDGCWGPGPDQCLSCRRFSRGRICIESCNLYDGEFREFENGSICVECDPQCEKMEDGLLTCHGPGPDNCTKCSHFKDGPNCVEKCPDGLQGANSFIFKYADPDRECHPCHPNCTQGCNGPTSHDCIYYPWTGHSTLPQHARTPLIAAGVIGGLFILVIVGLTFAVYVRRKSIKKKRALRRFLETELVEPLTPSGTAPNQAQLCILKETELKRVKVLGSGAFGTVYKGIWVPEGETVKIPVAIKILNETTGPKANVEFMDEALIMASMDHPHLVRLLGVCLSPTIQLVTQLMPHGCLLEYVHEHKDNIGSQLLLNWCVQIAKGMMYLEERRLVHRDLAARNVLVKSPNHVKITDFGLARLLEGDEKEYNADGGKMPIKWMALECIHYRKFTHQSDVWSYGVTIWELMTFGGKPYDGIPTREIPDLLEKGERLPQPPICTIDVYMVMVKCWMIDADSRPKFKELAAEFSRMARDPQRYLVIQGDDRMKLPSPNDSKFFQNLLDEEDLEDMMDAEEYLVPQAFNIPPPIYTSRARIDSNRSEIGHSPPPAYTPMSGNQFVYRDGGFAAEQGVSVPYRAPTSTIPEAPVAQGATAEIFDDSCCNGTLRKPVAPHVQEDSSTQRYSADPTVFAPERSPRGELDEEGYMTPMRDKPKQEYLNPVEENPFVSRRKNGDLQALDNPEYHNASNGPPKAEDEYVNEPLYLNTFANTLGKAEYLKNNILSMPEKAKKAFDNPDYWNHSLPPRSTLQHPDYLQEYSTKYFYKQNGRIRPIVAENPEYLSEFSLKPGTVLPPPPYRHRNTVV
UniProt P11362, whole entry, looked up: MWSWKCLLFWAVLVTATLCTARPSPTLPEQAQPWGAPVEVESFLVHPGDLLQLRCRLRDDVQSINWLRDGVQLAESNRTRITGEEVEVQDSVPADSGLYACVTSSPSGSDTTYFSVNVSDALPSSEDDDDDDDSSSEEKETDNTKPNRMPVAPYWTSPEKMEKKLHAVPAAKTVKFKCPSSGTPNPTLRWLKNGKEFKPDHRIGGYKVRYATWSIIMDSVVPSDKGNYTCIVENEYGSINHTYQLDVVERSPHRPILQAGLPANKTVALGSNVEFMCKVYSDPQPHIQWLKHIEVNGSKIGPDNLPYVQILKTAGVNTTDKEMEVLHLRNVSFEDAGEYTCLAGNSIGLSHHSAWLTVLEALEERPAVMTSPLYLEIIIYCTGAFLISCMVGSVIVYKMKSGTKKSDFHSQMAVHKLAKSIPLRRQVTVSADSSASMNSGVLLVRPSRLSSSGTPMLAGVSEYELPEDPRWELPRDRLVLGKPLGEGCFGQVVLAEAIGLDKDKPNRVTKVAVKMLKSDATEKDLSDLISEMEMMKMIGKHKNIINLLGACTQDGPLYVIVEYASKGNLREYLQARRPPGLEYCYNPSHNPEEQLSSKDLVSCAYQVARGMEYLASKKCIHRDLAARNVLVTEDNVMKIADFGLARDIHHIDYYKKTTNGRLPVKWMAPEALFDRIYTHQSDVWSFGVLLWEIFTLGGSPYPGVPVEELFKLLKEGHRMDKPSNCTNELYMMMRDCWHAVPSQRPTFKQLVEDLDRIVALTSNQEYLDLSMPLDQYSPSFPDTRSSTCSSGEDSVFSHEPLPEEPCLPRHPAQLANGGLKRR
UniProt P21802, whole entry, looked up: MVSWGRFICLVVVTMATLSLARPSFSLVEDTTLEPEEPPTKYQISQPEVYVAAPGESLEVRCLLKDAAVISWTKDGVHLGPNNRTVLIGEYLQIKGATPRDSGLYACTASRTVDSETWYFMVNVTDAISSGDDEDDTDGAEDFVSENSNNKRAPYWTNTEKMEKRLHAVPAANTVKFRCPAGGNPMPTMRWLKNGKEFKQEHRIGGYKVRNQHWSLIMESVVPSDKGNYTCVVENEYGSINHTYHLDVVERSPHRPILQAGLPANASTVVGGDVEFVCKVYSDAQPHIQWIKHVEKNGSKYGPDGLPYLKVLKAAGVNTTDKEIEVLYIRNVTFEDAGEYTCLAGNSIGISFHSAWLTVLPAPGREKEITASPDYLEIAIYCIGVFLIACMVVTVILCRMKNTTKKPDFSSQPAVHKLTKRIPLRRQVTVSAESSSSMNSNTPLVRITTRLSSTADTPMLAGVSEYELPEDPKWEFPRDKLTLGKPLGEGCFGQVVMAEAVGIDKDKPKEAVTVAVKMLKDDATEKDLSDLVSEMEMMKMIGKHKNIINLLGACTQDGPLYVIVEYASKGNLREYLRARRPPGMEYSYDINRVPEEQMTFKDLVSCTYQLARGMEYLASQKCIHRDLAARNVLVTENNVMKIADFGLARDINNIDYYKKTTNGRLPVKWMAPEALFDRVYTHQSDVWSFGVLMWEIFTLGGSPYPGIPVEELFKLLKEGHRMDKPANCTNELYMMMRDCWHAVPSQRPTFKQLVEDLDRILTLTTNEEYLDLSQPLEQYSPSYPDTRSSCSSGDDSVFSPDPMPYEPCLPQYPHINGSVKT
UniProt P22607, whole entry, looked up: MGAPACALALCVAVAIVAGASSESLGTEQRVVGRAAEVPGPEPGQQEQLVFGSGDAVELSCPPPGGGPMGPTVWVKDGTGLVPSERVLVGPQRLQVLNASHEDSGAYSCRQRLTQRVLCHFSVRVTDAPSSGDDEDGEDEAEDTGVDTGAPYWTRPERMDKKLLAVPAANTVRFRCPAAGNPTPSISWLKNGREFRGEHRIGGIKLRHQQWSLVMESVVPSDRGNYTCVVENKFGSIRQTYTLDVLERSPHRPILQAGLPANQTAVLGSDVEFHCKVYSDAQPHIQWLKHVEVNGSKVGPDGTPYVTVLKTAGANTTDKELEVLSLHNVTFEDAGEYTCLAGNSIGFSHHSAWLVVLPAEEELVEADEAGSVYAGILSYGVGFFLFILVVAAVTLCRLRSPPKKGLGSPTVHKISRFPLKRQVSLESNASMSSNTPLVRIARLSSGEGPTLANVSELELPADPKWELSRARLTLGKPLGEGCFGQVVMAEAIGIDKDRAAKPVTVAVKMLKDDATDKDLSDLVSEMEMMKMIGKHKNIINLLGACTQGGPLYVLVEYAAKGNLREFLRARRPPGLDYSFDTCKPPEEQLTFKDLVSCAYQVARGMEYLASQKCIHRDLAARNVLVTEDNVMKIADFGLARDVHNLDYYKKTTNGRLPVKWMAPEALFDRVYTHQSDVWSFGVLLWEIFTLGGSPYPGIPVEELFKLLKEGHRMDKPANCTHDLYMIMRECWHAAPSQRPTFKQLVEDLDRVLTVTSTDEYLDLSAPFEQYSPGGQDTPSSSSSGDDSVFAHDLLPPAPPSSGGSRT
UniProt P36888, whole entry: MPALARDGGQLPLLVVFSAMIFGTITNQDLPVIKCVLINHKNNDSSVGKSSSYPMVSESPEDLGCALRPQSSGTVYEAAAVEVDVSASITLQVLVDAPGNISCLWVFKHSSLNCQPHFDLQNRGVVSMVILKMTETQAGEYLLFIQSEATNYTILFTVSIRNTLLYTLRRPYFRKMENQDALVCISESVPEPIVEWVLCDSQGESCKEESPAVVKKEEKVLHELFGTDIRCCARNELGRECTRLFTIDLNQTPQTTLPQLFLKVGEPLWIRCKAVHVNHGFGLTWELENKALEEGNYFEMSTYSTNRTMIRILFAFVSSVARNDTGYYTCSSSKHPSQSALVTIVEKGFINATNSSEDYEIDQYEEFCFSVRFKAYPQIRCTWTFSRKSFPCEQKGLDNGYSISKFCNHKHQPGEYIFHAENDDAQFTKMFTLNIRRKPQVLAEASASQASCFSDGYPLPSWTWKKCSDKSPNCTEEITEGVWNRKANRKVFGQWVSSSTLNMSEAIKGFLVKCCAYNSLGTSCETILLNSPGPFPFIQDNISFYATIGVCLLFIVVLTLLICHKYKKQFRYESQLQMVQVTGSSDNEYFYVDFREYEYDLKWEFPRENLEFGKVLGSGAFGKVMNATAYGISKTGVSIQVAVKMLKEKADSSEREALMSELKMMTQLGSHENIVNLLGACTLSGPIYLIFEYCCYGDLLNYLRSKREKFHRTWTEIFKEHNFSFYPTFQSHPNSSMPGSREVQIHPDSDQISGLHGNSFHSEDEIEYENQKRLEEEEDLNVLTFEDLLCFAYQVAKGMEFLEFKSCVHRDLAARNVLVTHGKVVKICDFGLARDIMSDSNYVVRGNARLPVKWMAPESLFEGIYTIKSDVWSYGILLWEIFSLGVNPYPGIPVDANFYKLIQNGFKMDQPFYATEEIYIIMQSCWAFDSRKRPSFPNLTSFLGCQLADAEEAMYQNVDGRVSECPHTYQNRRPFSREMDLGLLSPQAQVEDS
UniProt P06241, whole entry, looked up: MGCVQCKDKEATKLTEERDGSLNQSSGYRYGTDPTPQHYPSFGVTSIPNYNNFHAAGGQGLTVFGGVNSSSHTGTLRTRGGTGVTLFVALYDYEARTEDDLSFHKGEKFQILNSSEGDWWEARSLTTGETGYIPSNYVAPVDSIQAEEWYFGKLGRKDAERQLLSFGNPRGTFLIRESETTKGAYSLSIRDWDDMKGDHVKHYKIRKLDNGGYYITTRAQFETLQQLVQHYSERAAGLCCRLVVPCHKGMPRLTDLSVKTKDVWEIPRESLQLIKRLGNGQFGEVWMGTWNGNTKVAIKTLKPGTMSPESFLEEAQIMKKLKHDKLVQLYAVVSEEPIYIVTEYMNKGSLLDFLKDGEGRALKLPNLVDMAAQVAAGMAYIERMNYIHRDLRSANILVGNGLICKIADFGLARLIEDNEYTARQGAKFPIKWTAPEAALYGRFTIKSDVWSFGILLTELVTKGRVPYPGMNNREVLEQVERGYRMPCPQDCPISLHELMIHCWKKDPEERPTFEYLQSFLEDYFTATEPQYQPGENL
UniProt P14616: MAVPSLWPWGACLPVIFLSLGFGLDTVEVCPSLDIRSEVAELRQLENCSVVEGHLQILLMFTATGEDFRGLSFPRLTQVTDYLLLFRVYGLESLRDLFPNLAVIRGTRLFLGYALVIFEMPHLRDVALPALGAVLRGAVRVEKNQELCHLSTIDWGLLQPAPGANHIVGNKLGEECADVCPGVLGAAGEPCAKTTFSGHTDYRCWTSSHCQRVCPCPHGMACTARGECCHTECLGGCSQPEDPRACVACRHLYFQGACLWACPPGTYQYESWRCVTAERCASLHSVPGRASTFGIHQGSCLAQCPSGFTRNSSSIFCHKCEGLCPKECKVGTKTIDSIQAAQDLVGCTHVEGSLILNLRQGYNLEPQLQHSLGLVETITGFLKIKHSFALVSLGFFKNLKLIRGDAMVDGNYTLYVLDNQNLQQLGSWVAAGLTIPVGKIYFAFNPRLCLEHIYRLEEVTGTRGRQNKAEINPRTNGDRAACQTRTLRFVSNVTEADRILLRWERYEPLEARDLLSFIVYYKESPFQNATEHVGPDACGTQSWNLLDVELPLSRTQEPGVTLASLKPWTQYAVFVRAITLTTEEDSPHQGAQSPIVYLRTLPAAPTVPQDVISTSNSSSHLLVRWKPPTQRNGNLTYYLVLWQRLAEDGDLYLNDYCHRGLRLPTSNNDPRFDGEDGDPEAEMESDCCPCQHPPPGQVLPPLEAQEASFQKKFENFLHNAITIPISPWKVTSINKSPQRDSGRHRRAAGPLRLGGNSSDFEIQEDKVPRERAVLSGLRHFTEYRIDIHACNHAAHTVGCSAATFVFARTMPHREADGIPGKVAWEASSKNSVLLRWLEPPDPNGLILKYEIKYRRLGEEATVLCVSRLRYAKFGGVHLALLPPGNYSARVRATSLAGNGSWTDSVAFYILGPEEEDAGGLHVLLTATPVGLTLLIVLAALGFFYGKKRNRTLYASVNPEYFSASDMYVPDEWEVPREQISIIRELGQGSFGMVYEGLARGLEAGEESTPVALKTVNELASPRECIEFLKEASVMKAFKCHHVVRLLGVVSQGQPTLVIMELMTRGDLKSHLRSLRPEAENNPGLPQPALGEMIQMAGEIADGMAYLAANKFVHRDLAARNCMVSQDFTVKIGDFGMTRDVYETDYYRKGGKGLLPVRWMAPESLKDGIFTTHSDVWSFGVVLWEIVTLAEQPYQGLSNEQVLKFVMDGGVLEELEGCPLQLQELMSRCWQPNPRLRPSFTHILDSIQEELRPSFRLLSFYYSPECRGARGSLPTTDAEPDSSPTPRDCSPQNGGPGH

Measured: kinase-Nluc reporter destabilization hit call

N#Cc1c(-c2ccccc2)cc(-c2cc(Br)ccc2O)[nH]c1=O (10 µM)
inactive: [1] 0 | [2] 0 | [3] 0 | [4] 0 | [5] 0 | [6] 0 | [7] 0 | [8] 0 | [9] 0 | [10] 0 | [11] 0 | [12] 0 | [13] 0 | [14] 0 | [15] 0 | [16] 0 | [17] 0 | [18] 0 | [19] 0 | [20] 0

COc1cc(F)c(F)c(Nc2ccc(I)cc2F)c1NS(=O)(=O)C1(C[C@H](O)CO)CC1 [Refametinib] (10 µM)
inactive: [1] 0 | [2] 0 | [3] 0 | [4] 0 | [5] 0 | [6] 0 | [7] 0 | [8] 0 | [9] 0 | [10] 0 | [11] 0 | [12] 0 | [13] 0 | [14] 0 | [15] 0 | [16] 0 | [17] 0 | [18] 0 | [19] 0 | [20] 0

Nc1ncnc2c1c(-c1ccc(Oc3ccccc3)cc1)nn2C1CCCNC1 (racemic) (2.5 µM)
inactive: [1] 0 | [2] 0 | [3] 0 | [4] 0 | [5] 0 | [6] 0 | [7] 0 | [8] 0 | [9] 0 | [10] 0 | [11] 0 | [12] 0 | [13] 0 | [14] 0 | [15] 0 | [16] 0 | [17] 0 | [18] 0 | [19] 0 | [20] 0

CCOc1ccc(C(=O)Nc2ncc([N+](=O)[O-])s2)cc1 (10 µM)
inactive: [1] 0 | [2] 0 | [3] 0 | [4] 0 | [5] 0 | [6] 0 | [7] 0 | [8] 0 | [9] 0 | [10] 0 | [11] 0 | [12] 0 | [13] 0 | [14] 0 | [15] 0 | [16] 0 | [17] 0 | [18] 0 | [19] 0 | [20] 0

Cc1cc(NC(=O)c2cccc(NC(=O)/C=C/CN(C)C)c2)ccc1Nc1nccc(-c2cccnc2)n1 (10 µM)
inactive: [1] 0 | [2] 0 | [3] 0 | [4] 0 | [5] 0 | [6] 0 | [7] 0 | [8] 0 | [9] 0 | [10] 0 | [11] 0 | [12] 0 | [13] 0 | [14] 0 | [15] 0 | [16] 0 | [17] 0 | [18] 0 | [19] 0 | [20] 0

COc1ccc([C@H]2c3[nH]c4ccc(Cl)cc4c3CCN2C(=O)Oc2ccc(Cl)cc2)cc1 (2.5 µM)
inactive: [1] 0 | [2] 0 | [3] 0 | [4] 0 | [5] 0 | [6] 0 | [7] 0 | [8] 0 | [9] 0 | [10] 0 | [11] 0 | [12] 0 | [13] 0 | [14] 0 | [15] 0 | [16] 0 | [17] 0 | [18] 0 | [19] 0 | [20] 0

Cn1nccc1Nc1nccc(-c2cc3c(s2)C(C)(C)N(CCN2CCOCC2)C3=O)n1 (10 µM)
inactive: [1] 0 | [2] 0 | [3] 0 | [4] 0 | [5] 0 | [6] 0 | [7] 0 | [8] 0 | [9] 0 | [10] 0 | [11] 0 | [12] 0 | [13] 0 | [14] 0 | [15] 0 | [16] 0 | [17] 0 | [18] 0 | [19] 0 | [20] 0

Quoted at random: two compounds from above
COc1cc(F)c(F)c(Nc2ccc(I)cc2F)c1NS(=O)(=O)C1(C[C@H](O)CO)CC1 [Refametinib] (10 µM)
inactive: [1] 0 | [2] 0 | [3] 0 | [4] 0 | [5] 0 | [6] 0 | [7] 0 | [8] 0 | [9] 0 | [10] 0 | [11] 0 | [12] 0 | [13] 0 | [14] 0 | [15] 0 | [16] 0 | [17] 0 | [18] 0 | [19] 0 | [20] 0

Cn1nccc1Nc1nccc(-c2cc3c(s2)C(C)(C)N(CCN2CCOCC2)C3=O)n1 (10 µM)
inactive: [1] 0 | [2] 0 | [3] 0 | [4] 0 | [5] 0 | [6] 0 | [7] 0 | [8] 0 | [9] 0 | [10] 0 | [11] 0 | [12] 0 | [13] 0 | [14] 0 | [15] 0 | [16] 0 | [17] 0 | [18] 0 | [19] 0 | [20] 0

Additional records

CC/C=C\C/C=C\C/C=C\CCCCCCCC(=O)O [α-Linolenic acid] (10 µM)
inactive: [1] 0 | [2] 0 | [3] 0 | [4] 0 | [5] 0 | [6] 0 | [7] 0 | [8] 0 | [9] 0 | [10] 0 | [11] 0 | [12] 0 | [13] 0 | [14] 0 | [15] 0 | [16] 0 | [17] 0 | [18] 0 | [19] 0 | [20] 0

CN(CCNc1ccc2ncc(-c3ccc(C(N)=O)cc3)n2n1)C(=O)OC(C)(C)C (10 µM)
inactive: [1] 0 | [2] 0 | [3] 0 | [4] 0 | [5] 0 | [6] 0 | [7] 0 | [8] 0 | [9] 0 | [10] 0 | [11] 0 | [12] 0 | [13] 0 | [14] 0 | [15] 0 | [16] 0 | [17] 0 | [18] 0 | [19] 0 | [20] 0

OCCNC1CCCc2c1[nH]c1ccc(-c3ccccc3)cc21 (stereo not given) (2.5 µM)
inactive: [1] 0 | [2] 0 | [3] 0 | [4] 0 | [5] 0 | [6] 0 | [7] 0 | [8] 0 | [9] 0 | [10] 0 | [11] 0 | [12] 0 | [13] 0 | [14] 0 | [15] 0 | [16] 0 | [17] 0 | [18] 0 | [19] 0 | [20] 0

CC(c1ccc(-c2cnc3c(-c4ccc(S(N)(=O)=O)c5ccccc45)cnn3c2)cc1)N1CCCC1 (stereo not given) (2.5 µM)
inactive: [1] 0 | [2] 0 | [3] 0 | [4] 0 | [5] 0 | [6] 0 | [7] 0 | [8] 0 | [9] 0 | [10] 0 | [11] 0 | [12] 0 | [13] 0 | [14] 0 | [15] 0 | [16] 0 | [17] 0 | [18] 0 | [19] 0 | [20] 0

O=C(NCCCNc1nc(Nc2cccc(NC(=O)N3CCCC3)c2)ncc1I)c1cccs1 (2.5 µM)
inactive: [1] 0 | [2] 0 | [3] 0 | [4] 0 | [5] 0 | [6] 0 | [7] 0 | [8] 0 | [9] 0 | [10] 0 | [11] 0 | [12] 0 | [13] 0 | [14] 0 | [15] 0 | [16] 0 | [17] 0 | [18] 0 | [19] 0 | [20] 0

O=C(NCCCNC(=O)Nc1cccc(C2=NCCN2)c1)Nc1cccc(C2=NCCN2)c1 [p32 Inhibitor M36] (10 µM)
inactive: [1] 0 | [2] 0 | [3] 0 | [4] 0 | [5] 0 | [6] 0 | [7] 0 | [8] 0 | [9] 0 | [10] 0 | [11] 0 | [12] 0 | [13] 0 | [14] 0 | [15] 0 | [16] 0 | [17] 0 | [18] 0 | [19] 0 | [20] 0

Nc1nccc(Oc2ccc(NC(=O)c3cn(COP(=O)(O)O)cc(-c4ccc(F)cc4)c3=O)cc2F)c1Cl (10 µM)
inactive: [1] 0 | [2] 0 | [3] 0 | [4] 0 | [5] 0 | [6] 0 | [7] 0 | [8] 0 | [9] 0 | [10] 0 | [11] 0 | [12] 0 | [13] 0 | [14] 0 | [15] 0 | [16] 0 | [17] 0 | [18] 0 | [19] 0 | [20] 0

CN1CCN(c2ccc(Nc3ncc4nc(Nc5ccccc5)n([C@@H]5CCN(S(=O)(=O)C6CC6)C5)c4n3)cc2)CC1 (2.5 µM)
inactive: [1] 0 | [2] 0 | [3] 0 | [4] 0 | [5] 0 | [6] 0 | [7] 0 | [8] 0 | [9] 0 | [10] 0 | [11] 0 | [12] 0 | [13] 0 | [14] 0 | [15] 0 | [16] 0 | [17] 0 | [18] 0 | [19] 0 | [20] 0

O=c1oc2cc(O)ccc2c2ccccc12 [Urolithin B] (10 µM)
inactive: [1] 0 | [2] 0 | [3] 0 | [4] 0 | [5] 0 | [6] 0 | [7] 0 | [8] 0 | [9] 0 | [10] 0 | [11] 0 | [12] 0 | [13] 0 | [14] 0 | [15] 0 | [16] 0 | [17] 0 | [18] 0 | [19] 0 | [20] 0

COc1cc(N2CCN(C)CC2)ccc1Nc1ncc2c(n1)N(C1CCC1)C(=O)N(c1c(C)cccc1C)C2 (2.5 µM)
inactive: [1] 0 | [2] 0 | [3] 0 | [4] 0 | [5] 0 | [6] 0 | [7] 0 | [8] 0 | [9] 0 | [10] 0 | [11] 0 | [12] 0 | [13] 0 | [14] 0 | [15] 0 | [16] 0 | [17] 0 | [18] 0 | [19] 0 | [20] 0

CC(C)=CC[C@H](O)C1=CC(=O)c2c(O)ccc(O)c2C1=O [(-)-Alkannin] (2.5 µM)
inactive: [1] 0 | [2] 0 | [3] 0 | [4] 0 | [5] 0 | [6] 0 | [7] 0 | [8] 0 | [9] 0 | [10] 0 | [11] 0 | [12] 0 | [13] 0 | [14] 0 | [15] 0 | [16] 0 | [17] 0 | [18] 0 | [19] 0 | [20] 0
